# Reference: the supplement of paper PMC12024529
# Counter-ions that a name gives are not always drawn. The list shows a part of the results. Part of the spread comes from offsets between plates or batches.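 The cells are HEK293 lines stably expressing B-domain-deleted factor VIII fused to Gaussia luciferase, either wild type or a misfolding-prone missense mutant. Each score is mean luminescence from triplicate wells minus the DMSO mean, divided by the DMSO standard deviation; a score of 2 or more counts as a hit, and low scores may reflect lower secretion or poorer cell viability.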
# What was measured:
# HEK293 WT BDD-FVIII-Gluc = experiment: secreted FVIII-Gluc luciferase Z-score vs DMSO control; higher = more FVIII-Gluc secretion; settings: 5 µM; 24 h
# [1] = system: HEK293 p.N1941S BDD-FVIII-Gluc; experiment: as above; settings: 5 µM; 24 h
SMILES,secreted FVIII-Gluc luciferase Z-score (HEK293 WT BDD-FVIII-Gluc),secreted FVIII-Gluc luciferase Z-score [1]
Cc1cc(=O)[nH]c(=S)[nH]1 [Methylthiouracil],inactive: 0.956,inactive: -0.411
C[C@@H]1CN(c2c(F)c(N)c3c(=O)c(C(=O)O)cn(C4CC4)c3c2F)C[C@H](C)N1 [Sparfloxacin],inactive: -2.48,inactive: -0.647
CC(NCCc1ccc(O)cc1)C(O)c1ccc(O)cc1 (stereo unspecified) [Ritodrine hydrochloride (Yutopar)],inactive: 1.25,inactive: 0.0169
Cc1onc(-c2ccccc2)c1-c1ccc(S(N)(=O)=O)cc1 [Bextra (valdecoxib)],inactive: -1.28,inactive: -0.361
CCC[C@@H]1C[C@@H](C(=O)N[C@@H]([C@H]2O[C@H](SC)[C@H](O)[C@@H](O)[C@H]2O)[C@H](C)Cl)N(C)C1 [Clindamycin hydrochloride (Dalacin)],inactive: -1.35,inactive: -1.67
CC12CC3CC(C)(C1)CC(N)(C3)C2 [Memantine HCl (Namenda)],inactive: 1.25,inactive: -0.825
CC(=O)Oc1cc(C(F)(F)F)ccc1C(=O)O [Triflusal],inactive: 1.34,inactive: 0.32
CCc1c(Cl)c(O)c(Cl)c(O)c1C(=O)O[C@H]1[C@H](O)[C@H](OC)[C@H](OC/C2=C\C=C\C[C@H](O)/C(C)=C/[C@H](CC)[C@@H](O[C@@H]3OC(C)(C)[C@@H](OC(=O)C(C)C)[C@H](O)[C@@H]3O)/C(C)=C/C(C)=C/C[C@@H]([C@@H](C)O)OC2=O)O[C@@H]1C [Fidaxomicin],inactive: -1.44,inactive: -0.55

# In the list so far, 2 contain fluorine:
SMILES,secreted FVIII-Gluc luciferase Z-score (HEK293 WT BDD-FVIII-Gluc),secreted FVIII-Gluc luciferase Z-score [1]
C[C@@H]1CN(c2c(F)c(N)c3c(=O)c(C(=O)O)cn(C4CC4)c3c2F)C[C@H](C)N1 [Sparfloxacin],inactive: -2.48,inactive: -0.647
CC(=O)Oc1cc(C(F)(F)F)ccc1C(=O)O [Triflusal],inactive: 1.34,inactive: 0.32
